Values of other authors as cited in article PMC3703823 (Clinical cancer research : an official journal of the …, 2011).

Biological target: AAG
Details: cited from earlier work

## Cc1ccc(NC(=O)c2ccc(CN3CCN(C)CC3)cc2)cc1Nc1nccc(-c2cccnc2)n1 [imatinib]
  KD for AAG (corresponding to KA): 600 nM
